Values from PubChem BioAssay AID1259405 (NCATS, 2018).

Screen: 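Mouse-designed siRNAs used to find CHO productivity engineering targets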 (primary screen)
System: Chinese hamster CHO-K1 ovary cells with stable secreted eGFP expression
Reagent: single siRNA against mouse genes, 0.8 pmol siRNA per well (2 µl of 400 nM stock)
Timing: 3 days
Measurement: 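Percent of the per-plate non-targeting control median for intracellular GFP per well by laser scanning cytometry and for cell viability by ATP luminescence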
Scale: GFP, % of control: higher = more GFP per well, higher productivity; viability (ATP), % of control: higher = more viable cells (more ATP)
Rule for the call: 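Called active when intracellular GFP, relative to negative control, is at or above 120%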
Here is a random part of about 50,000 reagents tested. About 4,000 of all reagents (8%) count as active. 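Mouse siRNA library applied to hamster cells; one well for each siRNA.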 Entries without a mark were called inactive. The numbers tell different reagents against one gene apart.

Nkx2-5 #1 → GFP, % of control = 71.1; viability (ATP), % of control = 53.5
Nkx2-5 #2 → GFP, % of control = 89.3; viability (ATP), % of control = 90.9
Pax1 #1 → GFP, % of control = 103; viability (ATP), % of control = 90.9
Pax1 #2 → GFP, % of control = 108; viability (ATP), % of control = 95
Bcl3 #1 → GFP, % of control = 74.7; viability (ATP), % of control = 76.4
Bcl3 #2 → GFP, % of control = 79.5; viability (ATP), % of control = 82.5
Bcl3 #3 → GFP, % of control = 92.5; viability (ATP), % of control = 109
Zdhhc4 #1 → GFP, % of control = 63; viability (ATP), % of control = 41.5
Zdhhc4 #2 → GFP, % of control = 44.3; viability (ATP), % of control = 67
Zdhhc4 #3 → GFP, % of control = 60.1; viability (ATP), % of control = 63.2
Homer2 #1 → GFP, % of control = 72.3; viability (ATP), % of control = 71.8
Homer2 #2 → GFP, % of control = 91.5; viability (ATP), % of control = 105
Homer2 #3 → GFP, % of control = 66.5; viability (ATP), % of control = 61.9
Homer2 #4 → GFP, % of control = 55.7; viability (ATP), % of control = 90.4
Homer2 #5 → GFP, % of control = 70.5; viability (ATP), % of control = 58.2
Homer2 #6 → GFP, % of control = 100; viability (ATP), % of control = 75.6
Irx4 #1 → GFP, % of control = 74.2; viability (ATP), % of control = 90.3
Irx4 #2 → GFP, % of control = 54.5; viability (ATP), % of control = 58.6
Irx4 #3 → GFP, % of control = 94.7; viability (ATP), % of control = 106
Atp5f1a #1 → GFP, % of control = 42.4; viability (ATP), % of control = 55.2
Atp5f1a #2 → GFP, % of control = 71.3; viability (ATP), % of control = 89
Atp5f1a #3 → GFP, % of control = 174 (active); viability (ATP), % of control = 73.8
Atp5mc3 #1 → GFP, % of control = 62.6; viability (ATP), % of control = 73.3
Atp5mc3 #2 → GFP, % of control = 79.3; viability (ATP), % of control = 90
Atp5mc3 #3 → GFP, % of control = 98.5; viability (ATP), % of control = 68.7
Slc22a4 #1 → GFP, % of control = 135 (active); viability (ATP), % of control = 67.5
Slc22a4 #2 → GFP, % of control = 100; viability (ATP), % of control = 77.7
Slc22a4 #3 → GFP, % of control = 92.7; viability (ATP), % of control = 83.8
Klf12 #1 → GFP, % of control = 64.4; viability (ATP), % of control = 72.1
Klf12 #2 → GFP, % of control = 65.2; viability (ATP), % of control = 86.8
Klf12 #3 → GFP, % of control = 79.4; viability (ATP), % of control = 87.5
Or4e2 #1 → GFP, % of control = 96.3; viability (ATP), % of control = 103
Or4e2 #2 → GFP, % of control = 69.2; viability (ATP), % of control = 73.2
Or4e2 #3 → GFP, % of control = 68.3; viability (ATP), % of control = 104
Eya3 #1 → GFP, % of control = 93.8; viability (ATP), % of control = 66.6
Eya3 #2 → GFP, % of control = 68.5; viability (ATP), % of control = 75.5
Eya3 #3 → GFP, % of control = 105; viability (ATP), % of control = 85.6
Or12d14-ps1 #1 → GFP, % of control = 69.8; viability (ATP), % of control = 76.2
Or12d14-ps1 #2 → GFP, % of control = 66.1; viability (ATP), % of control = 73.4
Or12d14-ps1 #3 → GFP, % of control = 45.6; viability (ATP), % of control = 47
Acad10 #1 → GFP, % of control = 66.6; viability (ATP), % of control = 72.7
Acad10 #2 → GFP, % of control = 101; viability (ATP), % of control = 107
Nyx #1 → GFP, % of control = 79.4; viability (ATP), % of control = 66.4
Nyx #2 → GFP, % of control = 87.4; viability (ATP), % of control = 89.7
Nyx #3 → GFP, % of control = 68.6; viability (ATP), % of control = 72.1
Gm11992 #1 → GFP, % of control = 61.6; viability (ATP), % of control = 73.4
Gm11992 #2 → GFP, % of control = 84.5; viability (ATP), % of control = 58.6
Gm11992 #3 → GFP, % of control = 60.7; viability (ATP), % of control = 65.1
Atoh1 #1 → GFP, % of control = 79.3; viability (ATP), % of control = 90.5
Atoh1 #2 → GFP, % of control = 239 (active); viability (ATP), % of control = 167
Atoh1 #3 → GFP, % of control = 82.1; viability (ATP), % of control = 118
Or7a39 #1 → GFP, % of control = 70.8; viability (ATP), % of control = 67.3
Or7a39 #2 → GFP, % of control = 50.3; viability (ATP), % of control = 63
Or7a39 #3 → GFP, % of control = 58.1; viability (ATP), % of control = 85.7

Records listed so far with an active call (3):
Atp5f1a #3 → GFP, % of control = 174 (active); viability (ATP), % of control = 73.8
Slc22a4 #1 → GFP, % of control = 135 (active); viability (ATP), % of control = 67.5
Atoh1 #2 → GFP, % of control = 239 (active); viability (ATP), % of control = 167
